Experimental data reported in paper doi:10.1101/800557.
These are yes or no findings as the source states them, for the method shown. Binding seen in cells or lysates may run through a third protein. Binding can be weak; no strength is given.

Sequences of proteins named here, by UniProt entry; tags and fusion partners are left off. A change or cut given only in a name is not applied to a line headed by its entry.
UniProt O95858: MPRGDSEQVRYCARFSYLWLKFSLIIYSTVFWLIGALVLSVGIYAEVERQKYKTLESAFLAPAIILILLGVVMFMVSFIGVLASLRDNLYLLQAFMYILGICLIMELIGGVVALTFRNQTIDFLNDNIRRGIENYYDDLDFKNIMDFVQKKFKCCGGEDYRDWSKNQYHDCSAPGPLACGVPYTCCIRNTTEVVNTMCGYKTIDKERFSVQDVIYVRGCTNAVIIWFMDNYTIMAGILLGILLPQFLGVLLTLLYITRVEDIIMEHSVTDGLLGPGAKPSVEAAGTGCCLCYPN
UniProt O35598: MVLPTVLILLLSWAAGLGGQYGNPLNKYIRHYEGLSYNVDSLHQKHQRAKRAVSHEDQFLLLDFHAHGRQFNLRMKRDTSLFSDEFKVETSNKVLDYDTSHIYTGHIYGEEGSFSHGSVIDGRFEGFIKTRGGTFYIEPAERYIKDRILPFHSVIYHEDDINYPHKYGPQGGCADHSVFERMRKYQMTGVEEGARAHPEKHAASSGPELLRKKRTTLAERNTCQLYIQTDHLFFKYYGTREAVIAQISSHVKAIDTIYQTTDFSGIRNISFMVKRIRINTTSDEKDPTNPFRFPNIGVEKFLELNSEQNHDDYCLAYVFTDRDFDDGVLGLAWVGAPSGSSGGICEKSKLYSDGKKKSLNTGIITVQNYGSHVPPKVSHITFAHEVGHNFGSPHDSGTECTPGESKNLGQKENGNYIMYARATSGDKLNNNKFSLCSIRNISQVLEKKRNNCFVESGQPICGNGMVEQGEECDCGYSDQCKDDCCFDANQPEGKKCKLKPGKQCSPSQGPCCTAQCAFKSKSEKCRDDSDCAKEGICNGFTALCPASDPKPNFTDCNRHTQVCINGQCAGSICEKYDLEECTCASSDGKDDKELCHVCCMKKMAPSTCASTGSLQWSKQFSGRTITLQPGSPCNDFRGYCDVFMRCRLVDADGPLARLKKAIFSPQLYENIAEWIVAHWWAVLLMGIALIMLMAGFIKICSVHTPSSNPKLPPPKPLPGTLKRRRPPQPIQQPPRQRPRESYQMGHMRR

Biological target: Human Tspan15 tagged at the C-terminus with the N-terminal half of superfolder GFP (human) (UniProt O95858)
Test: split reporter

Mouse ADAM10 tagged at the C-terminus with the C-terminal half of superfolder GFP (from UniProt O35598)
binding: binds
